Results are given in words; binding and its absence hold for the method and conditions named. Some results given as binding are weak or reduced against the parent protein; the word gives no strength.
Tests used:
[1] = target: T1, CsgA_(21–42) (CsgG-recognition sequence) (E. coli); assay: SPR; BIAcore T200; CsgA peptides immobilised on a CM7 chip by EDC/NHS coupling; DnaK 50–1000 nM as analyte, single-cycle kinetics; 25 °C; HBS-DM buffer (10 mM HEPES pH 7.4, 150 mM NaCl, 5 mM MgCl2, 1% dimethylsulfoxide); 30 μL min^−1; fit with a 1:1 binding mode; both purified
T1 sequence (peptide): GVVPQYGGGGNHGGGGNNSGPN

Protein sequences, listed by entry. Tags and fused reporters are not part of them.
UniProt P0A6Y8: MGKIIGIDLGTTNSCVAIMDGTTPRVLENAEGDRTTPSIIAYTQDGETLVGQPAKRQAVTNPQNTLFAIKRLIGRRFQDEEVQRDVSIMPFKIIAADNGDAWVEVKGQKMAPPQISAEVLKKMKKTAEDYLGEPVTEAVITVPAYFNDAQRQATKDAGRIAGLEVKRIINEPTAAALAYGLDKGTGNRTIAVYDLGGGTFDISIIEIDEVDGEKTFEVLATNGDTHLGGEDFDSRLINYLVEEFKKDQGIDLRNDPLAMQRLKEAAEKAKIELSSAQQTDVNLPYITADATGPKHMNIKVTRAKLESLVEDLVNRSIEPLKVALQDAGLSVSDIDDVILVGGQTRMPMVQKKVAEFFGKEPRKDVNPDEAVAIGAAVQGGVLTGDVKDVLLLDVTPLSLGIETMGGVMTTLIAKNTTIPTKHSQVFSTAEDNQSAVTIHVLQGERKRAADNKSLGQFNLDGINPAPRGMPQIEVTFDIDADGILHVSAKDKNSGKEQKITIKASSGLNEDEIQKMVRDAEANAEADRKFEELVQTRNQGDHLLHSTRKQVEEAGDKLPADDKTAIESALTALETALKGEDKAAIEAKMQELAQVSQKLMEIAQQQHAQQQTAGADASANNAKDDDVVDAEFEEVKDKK

[2] = target: PhoA_(2–21) (PhoA signal peptide) [phosphatase: P00634]; assay: peptide or protein array; CelluSpot array of cellulose-bound peptides on glass slides (8-residue peptides overlapping by seven); 50 nM His-DnaK in DB buffer (25 mM Tris-HCl pH 7.5, 150 mM NaCl, 10 mM KCl, 0.05% Tween 20, 5% sucrose) overnight at 4 °C; detected with HRP-conjugated anti-His antibody; both purified

binding [2]: binds
Substance: N-terminal His-tagged DnaK (His-DnaK) (from UniProt P0A6Y8 1-638)
binding [1]: no binding (tested: 1000 nM (DnaK 50–1000 nM))
